Test results: the supplement of paper PMC4604168 (melanoma cell lines)
The list shows a part of the results. Many values rest on one well or one pass, so single values are uncertain.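 Imaging used 1,536-well plates; nuclei positive for cleaved PARP by antibody were divided by total DNA-stained nuclei to yield the apoptosis fraction. Doses for screening kept most cells viable, and cell lines differ markedly in resting and induced cleaved-PARP levels.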

Legend:
Assay in all cases: cleaved PARP positive nuclei fraction relative to DMSO control; melanoma cells; higher = more apoptosis
Conditions in all cases: library dose: low library concentration; 72 h
[1] = test system: 501Mel
[2] = test system: A101D
[3] = test system: A2058
[4] = test system: A375
[5] = test system: C32
[6] = test system: CBRC008 (line from a melanoma biopsy)
[7] = test system: CBRC014 (line from a melanoma biopsy)
[8] = test system: CBRC016 (line from a melanoma biopsy)
[9] = test system: CBRC017 (line from a melanoma biopsy)
[10] = test system: CBRC034 (line from a melanoma biopsy)
[11] = test system: COLO792
[12] = test system: COLO800
[13] = test system: COLO829
[14] = test system: G361
[15] = test system: IPC-298
[16] = test system: IST-MEL1
[17] = test system: LB2518-MEL
[18] = test system: LOXIMVI
[19] = test system: MEL-HO

| SMILES | cleaved PARP positive nuclei fraction [1] [%] | cleaved PARP positive nuclei fraction [2] [%] | cleaved PARP positive nuclei fraction [3] [%] | cleaved PARP positive nuclei fraction [4] [%] | cleaved PARP positive nuclei fraction [5] [%] | cleaved PARP positive nuclei fraction [6] [%] | cleaved PARP positive nuclei fraction [7] [%] | cleaved PARP positive nuclei fraction [8] [%] | cleaved PARP positive nuclei fraction [9] [%] | cleaved PARP positive nuclei fraction [10] [%] | cleaved PARP positive nuclei fraction [11] [%] | cleaved PARP positive nuclei fraction [12] [%] | cleaved PARP positive nuclei fraction [13] [%] | cleaved PARP positive nuclei fraction [14] [%] | cleaved PARP positive nuclei fraction [15] [%] | cleaved PARP positive nuclei fraction [16] [%] | cleaved PARP positive nuclei fraction [17] [%] | cleaved PARP positive nuclei fraction [18] [%] | cleaved PARP positive nuclei fraction [19] [%] |
| --- | --- | --- | --- | --- | --- | --- | --- | --- | --- | --- | --- | --- | --- | --- | --- | --- | --- | --- | --- |
| CCCCCCCCCCCCCCCCCCOP(=O)([O-])OC1CC[N+](C)(C)CC1 [Perifosine] + C=C(c1ccc(C(=O)O)cc1)c1cc2c(cc1C)C(C)(C)CCC2(C)C [Bexarotene] (first compound 0.4 µM, partner dose 2 µM) | 117 | 63.1 | 81.8 | 175 | 84.3 | 158 | 98.7 | 133 | 120 | 26.9 | 76.6 | 145 | 164 | 229 | 111 | 59.4 | 107 | 96.5 | 138 |
| Cc1cc(Nc2cc(N3CCN(C)CC3)nc(Sc3ccc(NC(=O)C4CC4)cc3)n2)n[nH]1 [Tozasertib] + C[C@@H](N)c1ccc(C(=O)Nc2ccnc3[nH]ccc23)cc1 [RKI983] (first compound 0.006 µM, partner dose 0.4 µM) | 45.7 | 91.8 | 115 | 154 | 104 | 43.6 | 123 | 167 | 79.4 | 207 | 145 | 83.1 | 154 | 111 | 81.8 | 122 | 18.7 | 120 | 71.5 |
| N#CC[C@H](C1CCCC1)n1cc(-c2ncnc3[nH]ccc23)cn1 [ruxolitinib] + CS(=O)(=O)CCNCc1ccc(-c2ccc3ncnc(Nc4ccc(OCc5cccc(F)c5)c(Cl)c4)c3c2)o1 [lapatinib] (first compound 1 µM, partner dose 0.8 µM) | 126 | 115 | 102 | 48.5 | 70.8 | 164 | 83.3 | 240 | 76.3 | 67.5 | 113 | 51.1 | 107 | 90.1 | 43.3 | 61.9 | 41.5 | 52.8 | 303 |
| O=c1[nH]nc(Sc2ncc([N+](=O)[O-])s2)n1-c1ccc2c(c1)OCCO2 + CN1CCN(c2ccc3nc(-c4c(N)c5c(F)cccc5[nH]c4=O)[nH]c3c2)CC1 [Dovitinib] (first compound 0.2 µM, partner dose 0.1 µM) | 72.4 | 243 | 50.4 | 93.2 | 82.8 | 66.2 | 97 | 133 | 88.9 | 138 | 25.3 | 191 | 84.3 | 81.8 | 55.2 | 43 | 62.2 | 207 | 147 |
| N#CC[C@H](C1CCCC1)n1cc(-c2ncnc3[nH]ccc23)cn1 [ruxolitinib] + CCCCCCCCc1ccc(CCC(N)(CO)CO)cc1 [fingolimod] (first compound 1 µM, partner dose 2 µM) | 98.1 | 36.2 | 132 | 198 | 72.8 | 46.1 | 97.1 | 164 | 111 | 32.3 | 29.5 | 36.3 | 75.4 | 93.7 | 122 | 199 | 88.1 | 211 | 163 |
| COc1cc([C@@H]2c3cc4c(cc3[C@@H](O[C@@H]3O[C@@H]5CO[C@@H](C)O[C@H]5[C@H](O)[C@H]3O)[C@H]3COC(=O)[C@H]23)OCO4)cc(OC)c1O [etoposide] + CNC(=O)c1cc(Oc2ccc(NC(=O)Nc3ccc(Cl)c(C(F)(F)F)c3)cc2)ccn1 [sorafenib] (first compound 0.02 µM, partner dose 0.4 µM) | 78 | 123 | 108 | 58.5 | 86.3 | 105 | 186 | 33.1 | 95.1 | 59.7 | 76 | 109 | 61.4 | 57 | 86.9 | 122 | 109 | 132 | 53.5 |
| Cc1cn(-c2cc(NC(=O)c3ccc(C)c(Nc4nccc(-c5cccnc5)n4)c3)cc(C(F)(F)F)c2)cn1 [nilotinib] + CN1CCN(c2ccc3nc(-c4c(N)c5c(F)cccc5[nH]c4=O)[nH]c3c2)CC1 [Dovitinib] (first compound 0.2 µM, partner dose 0.1 µM) | 202 | 82 | 156 | 110 | 65.7 | 23.8 | 87.2 | 51.6 | 80.1 | 71 | 55.1 | 124 | 107 | 74.3 | 81.2 | 130 | 47.9 | 153 | 75.3 |
| COc1cc([C@@H]2c3cc4c(cc3[C@@H](O[C@@H]3O[C@@H]5CO[C@@H](C)O[C@H]5[C@H](O)[C@H]3O)[C@H]3COC(=O)[C@H]23)OCO4)cc(OC)c1O [etoposide] + NC1(c2ccc(-c3nc4ccn5c(=O)[nH]nc5c4cc3-c3ccccc3)cc2)CCC1 [MK2206] (first compound 0.02 µM, partner dose 0.4 µM) | 102 | 156 | 102 | 60.9 | 167 | 45.7 | 284 | 125 | 90.2 | 283 | 61.1 | 34.2 | 154 | 189 | 104 | 61.4 | 69.7 | 54.4 | 179 |
| Cc1cn(-c2cc(NC(=O)c3ccc(C)c(Nc4nccc(-c5cccnc5)n4)c3)cc(C(F)(F)F)c2)cn1 [nilotinib] + C[C@@H](N)c1ccc(C(=O)Nc2ccnc3[nH]ccc23)cc1 [RKI983] (first compound 0.2 µM, partner dose 0.4 µM) | 129 | 215 | 124 | 214 | 103 | 167 | 119 | 344 | 90.6 | 83.2 | 119 | 70 | 123 | 215 | 55 | 60.5 | 164 | 58.3 | 107 |
| COc1cc([C@@H]2c3cc4c(cc3[C@@H](O[C@@H]3O[C@@H]5CO[C@@H](C)O[C@H]5[C@H](O)[C@H]3O)[C@H]3COC(=O)[C@H]23)OCO4)cc(OC)c1O [etoposide] + COc1ccc(Cl)c(Nc2nc3ccccc3nc2NS(=O)(=O)c2cccc(NC(=O)C(C)(C)N)c2)c1 [XL147] (first compound 0.02 µM, partner dose 0.8 µM) | 182 | 87.8 | 82 | 95.1 | 66.5 | 247 | 123 | 161 | 99.7 | 98.7 | 123 | 101 | 63.2 | 133 | 52.3 | 73.2 | 64.1 | 176 | 40.2 |
| COc1cc([C@@H]2c3cc4c(cc3[C@@H](O[C@@H]3O[C@@H]5CO[C@@H](C)O[C@H]5[C@H](O)[C@H]3O)[C@H]3COC(=O)[C@H]23)OCO4)cc(OC)c1O [etoposide] + Cc1ccc(Nc2nccc(N(C)c3ccc4c(C)n(C)nc4c3)n2)cc1S(N)(=O)=O [Pazopanib] (first compound 0.02 µM, partner dose 0.4 µM) | 161 | 130 | 169 | 134 | 68.7 | 106 | 117 | 79.2 | 142 | 32.7 | 93.3 | 134 | 71.4 | 155 | 34.6 | 64.3 | 24.9 | 61.9 | 80.7 |
| Cc1cn(-c2cc(NC(=O)c3ccc(C)c(Nc4nccc(-c5cccnc5)n4)c3)cc(C(F)(F)F)c2)cn1 [nilotinib] + NC1(c2ccc(-c3nc4ccn5c(=O)[nH]nc5c4cc3-c3ccccc3)cc2)CCC1 [MK2206] (first compound 0.2 µM, partner dose 0.4 µM) | 63.5 | 49.4 | 172 | 50.5 | 83.3 | 31.4 | 67.7 | 74.3 | 76.9 | 118 | 81.9 | 112 | 86.6 | 112 | 141 | 153 | 217 | 165 | 139 |
| COc1cc([C@@H]2c3cc4c(cc3[C@@H](O[C@@H]3O[C@@H]5CO[C@@H](C)O[C@H]5[C@H](O)[C@H]3O)[C@H]3COC(=O)[C@H]23)OCO4)cc(OC)c1O [etoposide] + Cn1sc(=O)n(Cc2ccccc2)c1=O [TDZD-8] (first compound 0.02 µM, partner dose 0.4 µM) | 146 | 44.3 | 95.3 | 68.3 | 80.1 | 90.3 | 71.1 | 103 | 94 | 97.1 | 60 | 89.5 | 106 | 220 | 92.8 | 33.9 | 112 | 17.5 | 21.9 |
| Cc1cn(-c2cc(NC(=O)c3ccc(C)c(Nc4nccc(-c5cccnc5)n4)c3)cc(C(F)(F)F)c2)cn1 [nilotinib] + C=CCNC1=C2C[C@@H](C)C[C@H](OC)[C@H](O)[C@@H](C)/C=C(\C)[C@H](OC(N)=O)[C@@H](OC)/C=C\C=C(/C)C(=O)NC(=CC1=O)C2=O [Tanespimycin] (first compound 0.2 µM, partner dose 0.002 µM) | 136 | 189 | 138 | 106 | 93.5 | 186 | 97.9 | 162 | 103 | 70.2 | 132 | 50.9 | 67.7 | 135 | 135 | 70.1 | 123 | 31.8 | 129 |
| CC[C@]1(O)C[C@H]2CN(CCc3c([nH]c4ccccc34)[C@@](C(=O)OC)(c3cc4c(cc3OC)N(C=O)[C@H]3[C@@](O)(C(=O)OC)[C@H](OC(C)=O)[C@]5(CC)C=CCN6CC[C@]43[C@@H]65)C2)C1 [vincristine] + C[C@]1(O)C[C@@H](c2nc(-c3ccc4ccc(-c5ccccc5)nc4c3)c3c(N)nccn32)C1 [OSI906] (first compound 0.0001 µM, partner dose 0.4 µM) | 64.9 | 105 | 93 | 311 | 73.1 | 121 | 106 | 122 | 123 | 53.1 | 61.5 | 73.5 | 131 | 86.8 | 25.8 | 118 | 59.6 | 166 | 56.5 |
| COc1cc([C@@H]2c3cc4c(cc3[C@@H](O[C@@H]3O[C@@H]5CO[C@@H](C)O[C@H]5[C@H](O)[C@H]3O)[C@H]3COC(=O)[C@H]23)OCO4)cc(OC)c1O [etoposide] + CCN(CC)CCNC(=O)c1c(C)[nH]c(/C=C2\C(=O)Nc3ccc(F)cc32)c1C [sunitinib] (first compound 0.02 µM, partner dose 0.4 µM) | 67.4 | 44.2 | 168 | 233 | 74 | 46.9 | 89.3 | 44.6 | 69.6 | 117 | 99.9 | 76 | 129 | 101 | 150 | 63 | 46.5 | 174 | 26.6 |

As entered above:
Entry for COc1cc([C@@H]2c3cc4c(cc3[C@@H](O[C@@H]3O[C@@H]5CO[C@@H](C)O[C@H]5[C@H](O)[C@H]3O)[C@H]3COC(=O)[C@H]23)OCO4)cc(OC)c1O [etoposide] + CNC(=O)c1cc(Oc2ccc(NC(=O)Nc3ccc(Cl)c(C(F)(F)F)c3)cc2)ccn1 [sorafenib] (first compound 0.02 µM, partner dose 0.4 µM) under cleaved PARP positive nuclei fraction [8] [%]: 33.1
Entry for Cc1cc(Nc2cc(N3CCN(C)CC3)nc(Sc3ccc(NC(=O)C4CC4)cc3)n2)n[nH]1 [Tozasertib] + C[C@@H](N)c1ccc(C(=O)Nc2ccnc3[nH]ccc23)cc1 [RKI983] (first compound 0.006 µM, partner dose 0.4 µM) under cleaved PARP positive nuclei fraction [6] [%]: 43.6
